Publication PMC6197280, “A distinct isoform of ZNF207 controls self-renewal and pluripotency of human embryonic stem cells”

Protein sequences, listed by entry. Tags and fused reporters are not part of them. Lines headed by an entry give the natural chain unless they say otherwise; changes in a name come on top.
UniProt O43670: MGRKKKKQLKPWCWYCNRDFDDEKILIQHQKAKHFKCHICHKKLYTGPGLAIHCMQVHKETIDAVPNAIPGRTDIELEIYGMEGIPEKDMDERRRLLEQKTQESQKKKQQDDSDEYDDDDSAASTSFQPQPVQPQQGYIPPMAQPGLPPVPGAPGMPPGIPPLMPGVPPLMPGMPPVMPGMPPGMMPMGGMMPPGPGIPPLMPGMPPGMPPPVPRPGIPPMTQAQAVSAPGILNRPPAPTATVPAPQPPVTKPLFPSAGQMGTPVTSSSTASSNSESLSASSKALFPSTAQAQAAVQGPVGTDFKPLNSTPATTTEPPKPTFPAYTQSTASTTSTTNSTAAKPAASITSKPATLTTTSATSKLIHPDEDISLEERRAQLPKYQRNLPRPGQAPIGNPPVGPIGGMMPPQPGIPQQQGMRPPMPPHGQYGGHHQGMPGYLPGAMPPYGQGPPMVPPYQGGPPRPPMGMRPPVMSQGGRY
UniProt Q01860: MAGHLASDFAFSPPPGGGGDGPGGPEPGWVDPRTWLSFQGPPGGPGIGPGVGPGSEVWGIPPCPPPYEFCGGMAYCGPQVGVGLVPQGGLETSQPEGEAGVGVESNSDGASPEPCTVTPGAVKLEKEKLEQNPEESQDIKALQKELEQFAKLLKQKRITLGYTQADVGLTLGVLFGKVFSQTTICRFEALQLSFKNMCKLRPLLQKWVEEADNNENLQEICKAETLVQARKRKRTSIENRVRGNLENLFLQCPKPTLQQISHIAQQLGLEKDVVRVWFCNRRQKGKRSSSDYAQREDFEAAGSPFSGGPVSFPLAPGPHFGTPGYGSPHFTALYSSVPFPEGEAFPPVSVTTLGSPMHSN
UniProt P48431: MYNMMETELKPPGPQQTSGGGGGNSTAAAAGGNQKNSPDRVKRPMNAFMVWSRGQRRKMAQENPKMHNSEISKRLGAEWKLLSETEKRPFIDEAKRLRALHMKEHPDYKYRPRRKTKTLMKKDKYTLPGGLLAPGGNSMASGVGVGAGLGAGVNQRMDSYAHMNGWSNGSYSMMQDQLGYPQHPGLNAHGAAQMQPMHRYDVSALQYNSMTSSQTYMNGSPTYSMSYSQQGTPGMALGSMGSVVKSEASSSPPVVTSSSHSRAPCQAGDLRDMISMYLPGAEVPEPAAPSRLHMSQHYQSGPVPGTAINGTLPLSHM

Assays:
Assay in all cases: co-IP; hESC cell extracts; beads coated with anti-OCT4, anti-SOX2 or anti-ZNF207 antibody, incubated with precleared whole-cell extracts at 4 °C overnight; lysis and wash buffer 50 mM Tris-HCl pH 8.0, 150 mM NaCl, 1 mM EDTA, 1% NP40, 10% glycerol; Western blot; control IP with IgG
[1] = molecular target: ZNF207 (human (endogenous in hESCs)) (UniProt O43670)
[2] = molecular target: OCT4 (human (endogenous in hESCs)) (UniProt Q01860)
[3] = molecular target: SOX2 (human (endogenous in hESCs)) (UniProt P48431)

Substance	binding [1]	binding [2]	binding [3]
SOX2 (from UniProt P48431 1-317)	binds		
ZNF207 (from UniProt O43670-4)		binds	binds

Results are given in words; binding and its absence hold for the method and conditions named. In cells and extracts the contact can be indirect. Binding can be weak; no strength is given.
